The other results are listed elsewhere or left out.
Compound: Cc1cc(ccc1-c1ccccc1)C(=O)N1CCCN(CC1)C(=O)CCl [compound 10]
Experiment: probe-labelled cysteine peptide fold change vs DMSO (competition) (log2 fold change); higher = less target engagement (more negative = stronger competition)
Details: THP-1, incubation time: 4 h
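Further: competitive profiling in live THP-1 cells: cysteine peptides tagged with an iodoacetamide desthiobiotin (IA-DTB) probe, intensity after compound treatment relative to DMSO-treated cells.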

Protein sequences, listed by entry. Tags and fused reporters are not part of them. Lines headed by an entry give the natural chain unless they say otherwise; changes in a name come on top.
UniProt Q12788: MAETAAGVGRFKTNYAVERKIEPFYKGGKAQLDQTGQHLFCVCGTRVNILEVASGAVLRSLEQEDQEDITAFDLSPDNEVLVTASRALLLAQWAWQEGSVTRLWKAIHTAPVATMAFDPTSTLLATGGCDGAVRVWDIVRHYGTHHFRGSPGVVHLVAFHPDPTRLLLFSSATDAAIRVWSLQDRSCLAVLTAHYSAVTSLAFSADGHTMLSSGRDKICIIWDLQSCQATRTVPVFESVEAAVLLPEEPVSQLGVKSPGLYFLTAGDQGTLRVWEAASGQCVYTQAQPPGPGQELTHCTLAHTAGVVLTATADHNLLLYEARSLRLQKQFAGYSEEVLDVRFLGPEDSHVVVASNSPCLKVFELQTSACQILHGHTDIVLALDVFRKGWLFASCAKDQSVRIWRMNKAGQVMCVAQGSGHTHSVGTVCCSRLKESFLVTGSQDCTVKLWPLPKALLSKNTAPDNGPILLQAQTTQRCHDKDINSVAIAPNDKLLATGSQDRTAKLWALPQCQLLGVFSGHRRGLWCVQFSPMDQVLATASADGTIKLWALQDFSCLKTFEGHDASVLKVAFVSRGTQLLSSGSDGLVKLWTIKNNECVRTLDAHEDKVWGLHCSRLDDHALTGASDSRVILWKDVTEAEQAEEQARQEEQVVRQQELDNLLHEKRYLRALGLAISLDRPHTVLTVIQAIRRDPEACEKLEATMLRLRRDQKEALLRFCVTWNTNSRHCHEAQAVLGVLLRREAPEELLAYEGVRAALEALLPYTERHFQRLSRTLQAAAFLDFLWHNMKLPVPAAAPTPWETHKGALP
UniProt Q6P1N9: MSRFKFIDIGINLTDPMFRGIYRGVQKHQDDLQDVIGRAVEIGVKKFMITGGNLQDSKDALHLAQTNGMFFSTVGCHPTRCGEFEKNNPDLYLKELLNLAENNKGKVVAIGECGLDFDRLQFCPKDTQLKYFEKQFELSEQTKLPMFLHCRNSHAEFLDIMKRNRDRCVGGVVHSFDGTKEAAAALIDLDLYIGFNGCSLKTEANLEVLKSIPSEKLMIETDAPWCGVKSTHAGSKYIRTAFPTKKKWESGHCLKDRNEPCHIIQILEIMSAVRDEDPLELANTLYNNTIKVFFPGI
UniProt Q9Y4P3: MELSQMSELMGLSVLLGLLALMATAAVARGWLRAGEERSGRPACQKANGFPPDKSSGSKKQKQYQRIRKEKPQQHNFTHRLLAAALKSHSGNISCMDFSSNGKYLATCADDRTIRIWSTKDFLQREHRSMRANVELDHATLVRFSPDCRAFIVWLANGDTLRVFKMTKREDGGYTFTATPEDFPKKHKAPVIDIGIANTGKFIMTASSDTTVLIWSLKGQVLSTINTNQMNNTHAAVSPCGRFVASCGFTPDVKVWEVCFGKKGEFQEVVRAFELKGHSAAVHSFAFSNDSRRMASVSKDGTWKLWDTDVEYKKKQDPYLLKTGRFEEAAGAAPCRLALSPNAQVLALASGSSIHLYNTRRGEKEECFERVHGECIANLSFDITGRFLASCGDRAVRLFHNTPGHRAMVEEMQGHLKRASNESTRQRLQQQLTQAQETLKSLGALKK
UniProt Q9UHD2: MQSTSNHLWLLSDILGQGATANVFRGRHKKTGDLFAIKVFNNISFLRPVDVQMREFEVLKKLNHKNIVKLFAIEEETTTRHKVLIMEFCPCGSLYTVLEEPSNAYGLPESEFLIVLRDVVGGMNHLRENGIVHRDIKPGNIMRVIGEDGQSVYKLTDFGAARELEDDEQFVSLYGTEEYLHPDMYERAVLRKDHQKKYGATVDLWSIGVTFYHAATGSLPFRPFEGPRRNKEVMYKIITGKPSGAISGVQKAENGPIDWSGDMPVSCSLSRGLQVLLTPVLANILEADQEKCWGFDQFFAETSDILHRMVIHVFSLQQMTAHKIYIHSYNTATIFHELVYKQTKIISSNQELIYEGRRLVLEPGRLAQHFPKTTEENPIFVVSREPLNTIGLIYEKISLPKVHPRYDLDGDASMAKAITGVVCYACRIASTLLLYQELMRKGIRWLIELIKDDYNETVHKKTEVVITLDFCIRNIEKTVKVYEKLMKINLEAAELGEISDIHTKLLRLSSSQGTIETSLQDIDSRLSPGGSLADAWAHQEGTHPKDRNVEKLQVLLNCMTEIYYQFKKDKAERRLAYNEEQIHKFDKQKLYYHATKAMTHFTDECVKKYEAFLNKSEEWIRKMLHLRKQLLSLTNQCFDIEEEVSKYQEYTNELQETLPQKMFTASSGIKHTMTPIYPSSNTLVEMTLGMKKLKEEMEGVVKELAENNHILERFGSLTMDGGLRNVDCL
UniProt Q9BX59, whole entry, looked up: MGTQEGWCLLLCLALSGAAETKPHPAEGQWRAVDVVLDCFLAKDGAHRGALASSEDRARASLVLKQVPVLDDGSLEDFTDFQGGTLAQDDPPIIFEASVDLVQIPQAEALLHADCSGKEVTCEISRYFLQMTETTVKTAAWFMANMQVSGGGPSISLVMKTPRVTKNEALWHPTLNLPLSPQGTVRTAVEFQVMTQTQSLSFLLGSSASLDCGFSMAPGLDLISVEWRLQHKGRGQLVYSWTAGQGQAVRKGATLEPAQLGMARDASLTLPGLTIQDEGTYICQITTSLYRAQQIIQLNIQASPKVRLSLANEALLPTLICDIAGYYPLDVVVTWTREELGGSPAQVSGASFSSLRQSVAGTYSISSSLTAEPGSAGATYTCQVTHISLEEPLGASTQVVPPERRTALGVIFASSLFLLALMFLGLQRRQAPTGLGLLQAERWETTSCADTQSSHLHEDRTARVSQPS
UniProt O15533, whole entry, looked up: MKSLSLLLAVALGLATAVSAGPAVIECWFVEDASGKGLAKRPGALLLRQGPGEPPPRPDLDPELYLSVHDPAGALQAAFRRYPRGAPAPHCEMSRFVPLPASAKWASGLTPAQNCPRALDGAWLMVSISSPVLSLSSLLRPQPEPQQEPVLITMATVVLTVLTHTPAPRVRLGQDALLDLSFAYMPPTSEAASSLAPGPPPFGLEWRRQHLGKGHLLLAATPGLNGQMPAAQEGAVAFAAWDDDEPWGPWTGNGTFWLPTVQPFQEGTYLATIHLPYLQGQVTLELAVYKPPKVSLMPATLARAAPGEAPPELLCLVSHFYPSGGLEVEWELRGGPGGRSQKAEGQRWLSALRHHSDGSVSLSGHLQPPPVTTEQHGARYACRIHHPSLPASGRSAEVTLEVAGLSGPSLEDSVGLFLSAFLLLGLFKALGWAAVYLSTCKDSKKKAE
UniProt O14776: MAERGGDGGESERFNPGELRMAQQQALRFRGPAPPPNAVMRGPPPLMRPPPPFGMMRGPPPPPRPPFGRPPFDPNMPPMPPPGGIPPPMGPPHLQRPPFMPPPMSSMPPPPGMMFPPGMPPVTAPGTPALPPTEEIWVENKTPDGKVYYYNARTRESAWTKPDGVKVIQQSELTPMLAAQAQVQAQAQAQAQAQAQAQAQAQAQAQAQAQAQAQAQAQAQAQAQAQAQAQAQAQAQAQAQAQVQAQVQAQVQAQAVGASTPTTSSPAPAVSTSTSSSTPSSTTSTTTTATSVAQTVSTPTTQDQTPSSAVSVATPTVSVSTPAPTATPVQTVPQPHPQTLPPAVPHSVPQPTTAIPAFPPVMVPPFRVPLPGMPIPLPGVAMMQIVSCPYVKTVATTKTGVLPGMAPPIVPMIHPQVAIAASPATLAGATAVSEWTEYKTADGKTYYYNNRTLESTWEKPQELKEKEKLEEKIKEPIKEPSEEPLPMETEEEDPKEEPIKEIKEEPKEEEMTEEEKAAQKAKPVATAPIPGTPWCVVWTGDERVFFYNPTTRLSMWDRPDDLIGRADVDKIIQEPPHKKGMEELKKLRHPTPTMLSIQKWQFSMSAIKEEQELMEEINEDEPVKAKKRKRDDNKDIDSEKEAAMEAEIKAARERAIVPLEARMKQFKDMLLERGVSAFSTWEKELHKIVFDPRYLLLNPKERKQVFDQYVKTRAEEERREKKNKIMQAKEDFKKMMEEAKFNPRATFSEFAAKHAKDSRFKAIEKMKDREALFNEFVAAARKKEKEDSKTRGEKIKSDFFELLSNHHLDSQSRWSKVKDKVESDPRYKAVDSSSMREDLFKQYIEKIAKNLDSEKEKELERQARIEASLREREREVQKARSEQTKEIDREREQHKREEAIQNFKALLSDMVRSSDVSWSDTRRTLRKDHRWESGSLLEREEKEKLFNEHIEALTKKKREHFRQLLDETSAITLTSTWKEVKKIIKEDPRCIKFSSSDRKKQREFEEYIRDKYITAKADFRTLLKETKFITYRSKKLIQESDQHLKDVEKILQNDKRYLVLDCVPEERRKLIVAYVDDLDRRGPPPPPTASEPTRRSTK
UniProt Q15542, whole entry, looked up: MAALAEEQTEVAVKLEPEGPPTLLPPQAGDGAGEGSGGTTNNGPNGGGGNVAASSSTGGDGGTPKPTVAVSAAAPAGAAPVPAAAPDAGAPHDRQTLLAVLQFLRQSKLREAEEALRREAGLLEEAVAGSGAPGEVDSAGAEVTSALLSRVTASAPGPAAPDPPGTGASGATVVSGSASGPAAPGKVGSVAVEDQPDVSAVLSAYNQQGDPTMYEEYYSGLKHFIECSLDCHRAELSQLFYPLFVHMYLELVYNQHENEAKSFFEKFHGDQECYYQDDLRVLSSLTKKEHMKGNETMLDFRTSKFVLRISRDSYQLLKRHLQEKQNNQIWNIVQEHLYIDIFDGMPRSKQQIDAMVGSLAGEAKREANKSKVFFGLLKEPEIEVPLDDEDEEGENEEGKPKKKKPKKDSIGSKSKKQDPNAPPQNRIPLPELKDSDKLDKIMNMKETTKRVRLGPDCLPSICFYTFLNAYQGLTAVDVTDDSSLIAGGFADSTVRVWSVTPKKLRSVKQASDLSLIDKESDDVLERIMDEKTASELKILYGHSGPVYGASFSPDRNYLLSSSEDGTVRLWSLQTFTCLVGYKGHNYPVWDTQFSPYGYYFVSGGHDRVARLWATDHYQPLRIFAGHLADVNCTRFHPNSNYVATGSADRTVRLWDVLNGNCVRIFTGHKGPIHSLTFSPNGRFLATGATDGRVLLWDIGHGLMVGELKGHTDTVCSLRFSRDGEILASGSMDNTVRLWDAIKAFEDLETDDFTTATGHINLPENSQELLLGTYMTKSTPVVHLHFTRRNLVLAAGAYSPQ
UniProt Q99426: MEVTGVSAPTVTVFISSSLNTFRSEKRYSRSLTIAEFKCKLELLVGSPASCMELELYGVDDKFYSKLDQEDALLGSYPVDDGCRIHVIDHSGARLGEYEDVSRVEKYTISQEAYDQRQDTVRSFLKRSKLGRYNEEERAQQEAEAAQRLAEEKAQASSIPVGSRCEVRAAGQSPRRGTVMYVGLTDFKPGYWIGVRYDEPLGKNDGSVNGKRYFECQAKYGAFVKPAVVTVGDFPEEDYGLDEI
UniProt Q9UL54: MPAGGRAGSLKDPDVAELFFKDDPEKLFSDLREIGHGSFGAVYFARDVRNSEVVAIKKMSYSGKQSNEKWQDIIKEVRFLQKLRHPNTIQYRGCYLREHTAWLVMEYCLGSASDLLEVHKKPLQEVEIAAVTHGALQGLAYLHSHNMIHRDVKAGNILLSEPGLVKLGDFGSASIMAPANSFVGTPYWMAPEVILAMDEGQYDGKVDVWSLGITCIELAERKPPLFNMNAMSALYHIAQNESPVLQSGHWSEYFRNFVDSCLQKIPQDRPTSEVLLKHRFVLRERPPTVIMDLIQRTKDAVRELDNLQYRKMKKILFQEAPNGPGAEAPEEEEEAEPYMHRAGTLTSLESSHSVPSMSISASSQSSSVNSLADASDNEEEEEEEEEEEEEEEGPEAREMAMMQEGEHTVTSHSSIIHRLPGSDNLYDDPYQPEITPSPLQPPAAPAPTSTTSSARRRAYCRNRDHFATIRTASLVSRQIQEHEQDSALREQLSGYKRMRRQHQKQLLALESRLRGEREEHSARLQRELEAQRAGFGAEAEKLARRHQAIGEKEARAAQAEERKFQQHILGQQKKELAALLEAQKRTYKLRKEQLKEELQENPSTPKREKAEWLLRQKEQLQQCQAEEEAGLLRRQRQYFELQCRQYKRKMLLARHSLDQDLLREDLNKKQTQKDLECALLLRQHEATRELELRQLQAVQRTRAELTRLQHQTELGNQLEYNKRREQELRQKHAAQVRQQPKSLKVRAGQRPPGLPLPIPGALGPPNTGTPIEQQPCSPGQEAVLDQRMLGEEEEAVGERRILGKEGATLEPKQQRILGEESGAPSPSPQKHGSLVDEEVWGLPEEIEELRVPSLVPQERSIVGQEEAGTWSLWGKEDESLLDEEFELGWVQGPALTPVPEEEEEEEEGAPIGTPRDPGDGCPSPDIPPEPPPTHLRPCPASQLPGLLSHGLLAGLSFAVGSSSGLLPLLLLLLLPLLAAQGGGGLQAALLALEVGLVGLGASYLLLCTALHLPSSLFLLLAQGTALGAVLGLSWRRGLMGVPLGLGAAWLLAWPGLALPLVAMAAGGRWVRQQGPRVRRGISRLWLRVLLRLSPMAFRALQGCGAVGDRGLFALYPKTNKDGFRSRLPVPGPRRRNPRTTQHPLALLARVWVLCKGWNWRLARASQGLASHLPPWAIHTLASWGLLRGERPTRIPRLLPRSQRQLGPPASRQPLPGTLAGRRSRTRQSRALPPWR

Target | probe-labelled cysteine peptide fold change (10 µM) | probe-labelled cysteine peptide fold change (50 µM)
TCEA2_Q15560_173_LSAQIEECIFR (UniProt Q15560) | 0.18 | -0.226
TACC1_O75410_78_ESCDPSLGLAGPGAK (UniProt O75410) | -0.249 | -0.232
TBL3_Q12788_526_GLWCVQFSPMDQVLATASADGTIK (UniProt Q12788) | 0.119 | 0.0335
TACC3_Q9Y6A5_426_SGCSEAQPPESPETR (UniProt Q9Y6A5) | -0.1 | -0.542
TARBP1_Q13395_24_ALLGALCQGEASAER (UniProt Q13395) | 0.00453 | -0.249
TBC1D24_Q9ULP9_404_EVCGAYLSTDWSER (UniProt Q9ULP9) | 0.266 | 0.219
TBC1D9B_Q66K14_1079_DCATEEDEPPAPELHQDAAR (UniProt Q66K14) | -0.105 | -0.118
TBC1D23_Q9NUY8_31_DLEEALEAGGCDLETLR (UniProt Q9NUY8) | 0.0492 | 0.305
TATDN1_Q6P1N9_113_VVAIGECGLDFDR (UniProt Q6P1N9) | -0.00967 | 0.199
TBL2_Q9Y4P3_335_TGRFEEAAGAAPCR (UniProt Q9Y4P3) | -0.0445 | -0.357
TARBP1_Q13395_1481_LIVVASLIDKPTNLGGLCR (UniProt Q13395) | -0.0174 | -0.254
TARS_P26639_343_IGRDQELYFFHELSPGSCFFLPK (UniProt P26639) | 0.0409 | 0.0137
TADA2B_Q86TJ2_359_VLCSSLNLSPAR (UniProt Q86TJ2) | 0.0971 | 0.0747
SYMPK_Q92797_848_GMGMNSPELLLLVENCPK (UniProt Q92797) | 0.311 | -0.0735
TAF4_O00268_1066_DLIFCLENER (UniProt O00268) | 0.0993 | 0.252
TBCK_Q8TEA7_330_SIEEVYYLWCLAGGDLEK (UniProt Q8TEA7) | -0.139 | 0.12
TBC1D8B_Q0IIM8_305_EVHECFLWVPFSHFNTHGK (UniProt Q0IIM8) | 0.0597 | 0.0528
TBCD_Q9BTW9_406_ALADDVVGSVLDCFSFQETDK (UniProt Q9BTW9) | 0.121 | 0.378
TBL2_Q9Y4P3_375_VHGECIANLSFDITGR (UniProt Q9Y4P3) | -0.122 | -0.338
SYVN1_Q86TM6_307_RLPCNHIFHTSCLR (UniProt Q86TM6) | 0.169 | 0.0514
TCEA1_P23193_212_NVLCGNIPPDLFAR (UniProt P23193) | 0.332 | 0.133
TBL3_Q12788_555_LWALQDFSCLK (UniProt Q12788) | 0.0566 | 0.312

Target | probe-labelled cysteine peptide fold change (10 µM) | probe-labelled cysteine peptide fold change (50 µM)
TBK1_Q9UHD2_267_AENGPIDWSGDMPVSCSLSR (UniProt Q9UHD2) | 0.0709 | -0.237
TAPBPL_Q9BX59_39_AVDVVLDCFLAK (UniProt Q9BX59) | 0.062 | -0.104
TCF20_Q9UGU0_1328_NCPAVTLTSPAK (UniProt Q9UGU0) | -0.301 | -0.252
TACC3_Q9Y6A5_828_ICDDLISK (UniProt Q9Y6A5) | 0.28 | 0.241
TAF6_P49848_130_VPLDVCLK (UniProt P49848) | -0.0404 | 0.0412
TBCC_Q15814_6_MESVSCSAAAVR (UniProt Q15814) | -0.187 | -0.303
SYVN1_Q86TM6_329_QQTCPTCR (UniProt Q86TM6) | 0.127 | 0.263
TAF15_Q92804_379_NSCNQCNEPRPEDSR (UniProt Q92804) | 0.0599 | 0.496
TAPBP_O15533_115_WASGLTPAQNCPR (UniProt O15533) | 0.00833 | -0.016
TARBP2_Q15633_73_VTVGDTSCTGQGPSK (UniProt Q15633) | 0.0896 | 0.0622
TBCD_Q9BTW9_457_RGACSVGTNVR (UniProt Q9BTW9) | -0.156 | 0.105
TAF2_Q6P1X5_357_CLAQSLAQQFFGCFISR (UniProt Q6P1X5) | 0.129 | 0.279
TCERG1_O14776_535_AKPVATAPIPGTPWCVVWTGDER (UniProt O14776) | 0.228 | 0.108
TAF5_Q15542_715_GHTDTVCSLR (UniProt Q15542) | 0.202 | 0.123
TAPBP_O15533_91_GAPAPHCEMSR (UniProt O15533) | -0.0185 | -0.0225
TACO1_Q9BSH4_160_CQADIR (UniProt Q9BSH4) | -0.127 | -0.0524
TADA3_O75528_255_SEAQHEQPEDGCPFGALTQR (UniProt O75528) | 0.239 | -0.368
TANK_Q92844_183_LNIPDTATETQCSVPIQCTDK (UniProt Q92844) | -0.166 | -0.156
TBK1_Q9UHD2_292_CWGFDQFFAETSDILHR (UniProt Q9UHD2) | -0.075 | 0.189
TCF25_Q9BQ70_540_EPATMSWLEENVHEVLQAVDAGDPAVEACENRR (UniProt Q9BQ70) | -0.186 | 0.168
TBL2_Q9Y4P3_247_FVASCGFTPDVK (UniProt Q9Y4P3) | -0.438 | -0.381
TBCB_Q99426_216_YFECQAK (UniProt Q99426) | -0.0957 | 0.252

Target | probe-labelled cysteine peptide fold change (10 µM) | probe-labelled cysteine peptide fold change (50 µM)
TAOK2_Q9UL54_643_QYFELQCR (UniProt Q9UL54) | 0.132 | -0.00659
TARBP1_Q13395_1556_SLDLTQYCFPEK (UniProt Q13395) | 0.0901 | -0.197
TARS2_Q9BW92_322_IGKEQELFFFHELSPGSCFFLPR (UniProt Q9BW92) | -0.0453 | -0.425
TBC1D2B_Q9UPU7_554_TPVCSEDQGPTR (UniProt Q9UPU7) | -0.259 | -0.205
TATDN1_Q6P1N9_253_KWESGHCLK (UniProt Q6P1N9) | -0.0435 | -0.161
TBL1X_O60907_571_VGASASDGSVCVLDLR (UniProt O60907) | -0.0134 | 0.0723
TATDN1_Q6P1N9_81_CGEFEK (UniProt Q6P1N9) | -0.227 | -0.33
TAF11_Q15544_173_VFVGEVVEEALDVCEK (UniProt Q15544) | 0.218 | 0.297
TBC1D1_Q86TI0_322_EISFCSQGIR (UniProt Q86TI0) | -0.0673 | 0.0796
TACC3_Q9Y6A5_236_AETPHGAEEECR (UniProt Q9Y6A5) | 0.141 | 0.144
TARS_P26639_413+417_ELFALKPMNCPGHCLMFDHRPR (UniProt P26639) | 0.00324 | -0.342
TBL3_Q12788_41+43_AQLDQTGQHLFCVCGTR (UniProt Q12788) | 0.0953 | -0.349
TATDN3_Q17R31_13_AAGVGLVDCHCHLSAPDFDRDLDDVLEK (UniProt Q17R31) | -0.0392 | -0.0637
TBL3_Q12788_129_AIHTAPVATMAFDPTSTLLATGGCDGAVR (UniProt Q12788) | 0.169 | 0.303
TAGLN2_P37802_38_QYDADLEQILIQWITTQCRK (UniProt P37802) | -0.622 | -0.903
TAF12_Q16514_143_ACTTEAHK (UniProt Q16514) | -0.109 | -0.272
TBC1D4_O60343_402_HVDHFGFICR (UniProt O60343) | 0.0428 | 0.132
TBC1D9B_Q66K14_340_EEDACHLIIPLR (UniProt Q66K14) | 0.279 | 0.292
TAF1C_Q15572_162_LLQDLGGHQPWGCPWAYLSNR (UniProt Q15572) | -0.035 | -0.311
TAF6L_Q9Y6J9_122_GCAETAVR (UniProt Q9Y6J9) | -0.123 | 0.0335
TAX1BP1_Q86VP1_328_LQLCLAEK (UniProt Q86VP1) | -0.303 | -0.432
SZT2_Q5T011_2893_EAPTSCESLDVSPPGAR (UniProt Q5T011) | -0.219 | -0.105

Target | probe-labelled cysteine peptide fold change (10 µM) | probe-labelled cysteine peptide fold change (50 µM)
TBCB_Q99426_83_LDQEDALLGSYPVDDGCR (UniProt Q99426) | 0.109 | 0.107
TAPBPL_Q9BX59_122_EVTCEISR (UniProt Q9BX59) | -0.138 | 0.00987
TACC1_O75410_482_KHETQSLALDACSR (UniProt O75410) | -0.349 | -0.296
TATDN1_Q6P1N9_113_VVAIGECGLDFDRLQFCPK (UniProt Q6P1N9) | -0.00511 | -0.419
TACC1_O75410_114_TCSKPSENEVPQQAIDSHSVK (UniProt O75410) | -0.266 | -0.655
TBC1D5_Q92609_219_QGMHELLAPIVFVLHCDHQAFLHASESAQPSEEMK (UniProt Q92609) | 0.363 | 0.126
TCF20_Q9UGU0_1795_SEDCGGGPR (UniProt Q9UGU0) | -0.142 | -0.0709
SYNJ2_O15056_63_LTDAYGCLGELR (UniProt O15056) | 0.0226 | 0.227
TAOK2_Q9UL54_623_EQLQQCQAEEEAGLLRR (UniProt Q9UL54) | -0.0287 | -0.14
TBL1X_O60907_571_VGASASDGSVCVLDLRK (UniProt O60907) | -0.412 | -0.304
TAX1BP1_Q86VP1_350_EDTCFLK (UniProt Q86VP1) | -0.379 | -0.87
TCIRG1_Q13488_241_ITDCFHCHVFPFLQQEEAR (UniProt Q13488) | 0.0627 | 0.0932
TAF5_Q15542_661_LWDVLNGNCVR (UniProt Q15542) | -0.124 | 0.173
SYTL4_Q96C24_596_LEDLQHMCLELTVWDREPLASNDFLGGVR (UniProt Q96C24) | 0.232 | 0.44
TCERG1_O14776_1062_RYLVLDCVPEER (UniProt O14776) | 0.0933 | 0.218
TANC1_Q9C0D5_1003_KGQCALVHSALR (UniProt Q9C0D5) | -0.0351 | -0.114
TAF5L_O75529_318_IHLACDILEEEDDEDDNAGTEMK (UniProt O75529) | -0.138 | 0.0942
TBL3_Q12788_696_DPEACEK (UniProt Q12788) | -0.21 | -0.486
TARS_P26639_656_FMADIDLDPGCTLNKK (UniProt P26639) | -0.21 | -0.342

Reference: the supplement of paper PMC12067093, “Discovery and optimisation of a covalent ligand for TRIM25 and its application to targeted protein ubiquitination” (Chemical Science, 2025)
